# Measured values taken from the supplement of paper PMC4604168 (melanoma cell lines).
# Some of the results follow. Repeats are few or missing, and single values can be far off.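 Imaging used 1,536-well plates; nuclei positive for cleaved PARP by antibody were divided by total DNA-stained nuclei to yield the apoptosis fraction. Doses for screening kept most cells viable, and cell lines differ markedly in resting and induced cleaved-PARP levels.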
# Test system: A2058
# Assay: cleaved PARP positive nuclei fraction relative to DMSO control; melanoma cells; higher = more apoptosis
# Conditions: library dose: low library concentration; 72 h
row,SMILES,cleaved PARP positive nuclei fraction
1,"Nc1ccn([C@@H]2O[C@H](CO)[C@@H](O)C2(F)F)c(=O)n1 [gemcitabine] + O=S(=O)(c1ccccc1)N(CC(F)(F)F)c1ccc(C(O)(C(F)(F)F)C(F)(F)F)cc1 [T0901317] (first compound 0.0004 µM, partner dose 1.4 µM)",21.4%
2,"Nc1ncn([C@H]2C[C@H](O)[C@@H](CO)O2)c(=O)n1 [decitabine] + O=C(Nc1ccccc1)c1cc([N+](=O)[O-])ccc1Cl [GW9662] (first compound 0.1 µM, partner dose 2 µM)",283%
3,"Nc1nc(F)nc2c1ncn2[C@@H]1O[C@H](CO)[C@@H](O)[C@@H]1O [fludarabine] + Cn1cc(/C=C2\C(=O)Nc3cccnc32)c2ccccc21 [GW441756] (first compound 0.2 µM, partner dose 0.4 µM)",9.82%
4,"Nc1ccn([C@@H]2O[C@H](CO)[C@@H](O)C2(F)F)c(=O)n1 [gemcitabine] + CCN(CC)CCCCNc1ncc2cc(-c3cc(OC)cc(OC)c3)c(NC(=O)NC(C)(C)C)nc2n1 [PD173074] (first compound 0.0004 µM, partner dose 0.1 µM)",62.7%
5,"CCCS(=O)(=O)Nc1ccc(F)c(C(=O)c2c[nH]c3ncc(Cl)cc23)c1F + COc1ccc(COc2ccc(Cc3cnc(N)nc3N)cc2OC)cc1 [GW2580] (first compound 0.08 µM, partner dose 1 µM)",140%
6,"Nc1ccn([C@@H]2O[C@H](CO)[C@@H](O)C2(F)F)c(=O)n1 [gemcitabine] + CCc1ccc(CCOc2ccc(CC3SC(=O)NC3=O)cc2)nc1 [pioglitazone] (first compound 0.0004 µM, partner dose 2 µM)",182%

# Nos. 3 through 4 from above:
row,SMILES,cleaved PARP positive nuclei fraction
3,"Nc1nc(F)nc2c1ncn2[C@@H]1O[C@H](CO)[C@@H](O)[C@@H]1O [fludarabine] + Cn1cc(/C=C2\C(=O)Nc3cccnc32)c2ccccc21 [GW441756] (first compound 0.2 µM, partner dose 0.4 µM)",9.82%
4,"Nc1ccn([C@@H]2O[C@H](CO)[C@@H](O)C2(F)F)c(=O)n1 [gemcitabine] + CCN(CC)CCCCNc1ncc2cc(-c3cc(OC)cc(OC)c3)c(NC(=O)NC(C)(C)C)nc2n1 [PD173074] (first compound 0.0004 µM, partner dose 0.1 µM)",62.7%
